± gives the standard deviation of the averaged measurements. Most entries show no effect beyond the scatter of the controls.
Assays:
Test in all cases: level (log10 ratio to DMSO vehicle control); higher = higher biomarker level / cell amount than vehicle control
[1] = compound: OCC(F)(F)OC(F)(F)C(F)(F)OC(F)(F)CO [1H,1H,8H,8H-Perfluoro-3,6-dioxaoctane-1,8-diol] (in DMSO); details: 2200 nM
Experimental: (§1)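 BioMAP Diversity Plus panel of 12 human primary cell co-culture systems (3C, 4H, LPS, SAg, BT, BF4T, BE3C, CASM3C, HDF3CGF, KF3CT, MyoF, Mphg). Compounds were added 1 h before stimulation and left for 24 h (MyoF 48 h; BT 72 h for soluble read-outs or 6 d for IgG). Biomarkers were read by ELISA, cytotoxicity by SRB, PBMC viability and proliferation by Alamar Blue. Each well value was divided by the mean of 8 DMSO control wells on the same plate and log10 transformed; duplicate blinded samples were tested at 4 concentrations.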

[2] = compound: CNS(=O)(=O)C(F)(F)C(F)(F)C(F)(F)C(F)(F)C(F)(F)C(F)(F)C(F)(F)C(F)(F)F [N-Methylperfluorooctanesulfonamide] (in DMSO); details: 2200 nM
Experimental: as §1

[3] = compound: O=C(O)CCC(F)(F)C(F)(F)C(F)(F)F [3:3 Fluorotelomer carboxylic acid] (in DMSO); details: 2200 nM
Experimental: as §1

[4] = compound: OCC(F)(F)C(F)(F)C(F)(F)C(F)(F)C(F)(F)C(F)(F)CO [1H,1H,8H,8H-Perfluorooctane-1,8-diol] (in DMSO); details: 2200 nM
Experimental: as §1

[5] = compound: FC(F)(F)COC(OCC(F)(F)F)OCC(F)(F)F [tris(Trifluoroethoxy)methane] (in DMSO); details: 2200 nM
Experimental: as §1

[6] = compound: O=C(O)C(F)(OC(F)(F)C(F)(F)C(F)(F)F)C(F)(F)F [Ammonium perfluoro-2-methyl-3-oxahexanoate] (in Water)
Experimental: as §1

[7] = compound: FC(F)(F)C(F)(F)CNCC(F)(F)C(F)(F)F [Bis(1H,1H-perfluoropropyl)amine] (in DMSO); details: 2200 nM
Experimental: as §1

[8] = compound: O=C(O)C(F)(OC(F)(F)C(F)(OC(F)(F)C(F)(OC(F)(F)C(F)(F)C(F)(F)F)C(F)(F)F)C(F)(F)F)C(F)(F)F [Perfluoro-(2,5,8-trimethyl-3,6,9-trioxadodecanoic)acid] (in DMSO); details: 370 nM
Experimental: as §1

[9] = compound: C=C(C)C(=O)OCCC(F)(F)C(F)(F)C(F)(F)C(F)(F)C(F)(F)C(F)(F)F [6:2 Fluorotelomer methacrylate] (in DMSO); details: 2200 nM
Experimental: as §1

[10] = compound: FC(F)(F)C(F)(F)C(F)(F)C(F)(F)CCI [1H,1H,2H,2H-Perfluorohexyl iodide] (in DMSO); details: 2200 nM
Experimental: as §1

[11] = compound: OCCCC(F)(F)C(F)(F)C(F)(F)C(F)(F)C(F)(F)C(F)(F)C(F)(F)C(F)(F)F [3-(Perfluorooctyl)propanol] (in DMSO); details: 2200 nM
Experimental: as §1

[12] = compound: O=C(O)C(F)(F)C(F)(F)C(F)(F)OC(F)(C(F)(F)F)C(F)(F)F [Perfluoro-4-isopropoxybutanoic acid] (in DMSO); details: 2200 nM
Experimental: as §1

Hexafluoroglutaric acid = compound: O=C(O)C(F)(F)C(F)(F)C(F)(F)C(=O)O [Hexafluoroglutaric acid] (in DMSO)
Experimental: as §1

Perfluorohexanoic acid = compound: O=C(O)C(F)(F)C(F)(F)C(F)(F)C(F)(F)C(F)(F)F [Perfluorohexanoic acid] (in DMSO)
Experimental: as §1

[13] = compound: O=S(=O)(O)C(F)(F)C(F)(F)C(F)(F)C(F)(F)F [Perfluorobutanesulfonic acid] (in DMSO)
Experimental: as §1

[14] = compound: OCC(F)(F)C(F)(F)C(F)(F)C(F)(F)C(F)(F)C(F)(F)F [6:1 Fluorotelomer alcohol] (in DMSO); details: 2200 nM
Experimental: as §1

[15] = compound: OCC(F)(F)C(F)(F)C(F)(F)C(F)F [1H,1H,5H-Perfluoropentanol] (in DMSO); details: 2200 nM
Experimental: as §1

Test System | level (log10) [1] | level (log10) [2] | level (log10) [3] | level (log10) [4] | level (log10) [5] | level (log10) ([6]; 2200 nM) | level (log10) ([6]; 6700 nM) | level (log10) ([6]; 20000 nM) | level (log10) ([6]; 60000 nM) | level (log10) [7] | level (log10) [8] | level (log10) [9] | level (log10) [10] | level (log10) [11] | level (log10) [12] | level (log10) (Hexafluoroglutaric acid; 2200 nM) | level (log10) (Hexafluoroglutaric acid; 6700 nM) | level (log10) (Hexafluoroglutaric acid; 20000 nM) | level (log10) (Hexafluoroglutaric acid; 60000 nM) | level (log10) (Perfluorohexanoic acid; 2200 nM) | level (log10) (Perfluorohexanoic acid; 6700 nM) | level (log10) (Perfluorohexanoic acid; 20000 nM) | level (log10) (Perfluorohexanoic acid; 60000 nM) | level (log10) ([13]; 2200 nM) | level (log10) ([13]; 6700 nM) | level (log10) ([13]; 20000 nM) | level (log10) ([13]; 60000 nM) | level (log10) [14] | level (log10) [15]
lMphg:CCL3/MIP-1alpha | 0.031 ± 0.03 | -0.007 ± 0.024 | 0.023 ± 0.058 | 0.004 ± 0.057 | 0.0095 ± 0.005 | -0.0485 ± 0.016 | -0.0685 ± 0.035 | -0.067 ± 0.0014 | -0.0185 ± 0.054 | -0.029 ± 0.021 | 0.04 ± 0.02 | 0.0065 ± 0.063 | -0.0235 ± 0.021 | 0.0005 ± 0.03 | -0.004 ± 0.0057 | 0.029 ± 0.017 | -0.0025 ± 0.0078 | 0.0125 ± 0.015 | -0.024 ± 0.052 | -0.0195 ± 0.029 | 0.006 | -0.009 ± 0.011 | 0.0025 ± 0.011 | -0.0295 ± 0.0078 | -0.0305 ± 0.016 | -0.0395 ± 0.005 | -0.0135 ± 0.0092 | 0.0085 ± 0.021 | 0.0045 ± 0.05
lMphg:CD40 | -0.0395 ± 0.022 | -0.0175 ± 0.015 | -0.076 ± 0.089 | -0.003 ± 0.037 | -0.0205 ± 0.047 | -0.0135 ± 0.016 | -0.0295 ± 0.0064 | -0.045 ± 0.0099 | -0.049 ± 0.011 | 0.0005 ± 0.0021 | 0.029 ± 0.05 | -0.006 ± 0.0042 | -0.0315 ± 0.013 | -0.0165 ± 0.046 | -0.018 ± 0.0042 | -0.03 ± 0.037 | -0.0015 ± 0.012 | -0.013 ± 0.0014 | -0.066 ± 0.061 | 0.0105 ± 0.052 | 0.0105 ± 0.0078 | 0.016 ± 0.02 | -0.008 ± 0.0028 | -0.0115 ± 0.0064 | -0.0015 ± 0.0064 | -0.0065 ± 0.0021 | 0.009 ± 0.0014 | 0.0235 ± 0.0064 | 0.007 ± 0.024
lMphg:CD62E/E-Selectin | -0.0205 ± 0.056 | -0.0235 ± 0.03 | 0.0075 ± 0.022 | 0.018 ± 0.064 | -0.019 ± 0.051 | 0.0245 ± 0.00071 | 0.013 ± 0.0071 | 0.002 ± 0.0071 | 0.0245 ± 0.013 | 0.0105 ± 0.012 | -0.009 ± 0.0042 | 0.0165 ± 0.049 | -0.0045 ± 0.074 | -0.025 ± 0.071 | -0.024 ± 0.014 | 0.0285 ± 0.005 | -0.0065 ± 0.026 | 0.001 ± 0.02 | -0.0165 ± 0.043 | -0.016 ± 0.0042 | 0.0025 ± 0.016 | 0 ± 0.0014 | -0.014 ± 0.0042 | 0.043 ± 0.011 | 0.0405 ± 0.0035 | 0.041 ± 0.044 | 0.0215 ± 0.046 | 0.014 ± 0.013 | -0.0025 ± 0.018
lMphg:CD69 | 0.006 ± 0.03 | -0.003 ± 0.05 | 0.0485 ± 0.086 | 0.009 ± 0.064 | 0.0415 ± 0.083 | 0.0295 ± 0.0035 | -0.0435 ± 0.011 | 0 ± 0.013 | -0.0185 ± 0.015 | 0.0245 ± 0.039 | -0.016 ± 0.0071 | 0.0015 ± 0.053 | -0.0035 ± 0.054 | 0.025 ± 0.023 | -0.0045 ± 0.042 | 0.0045 ± 0.012 | -0.037 ± 0.028 | -0.0325 ± 0.0021 | -0.0525 ± 0.015 | -0.026 ± 0.055 | 0.005 ± 0.035 | -0.003 ± 0.0071 | -0.017 ± 0.0042 | 0.0185 ± 0.054 | 0.0035 ± 0.005 | -0.0195 ± 0.005 | -0.0525 ± 0.043 | 0.017 ± 0.033 | -0.0125 ± 0.028
lMphg:CD106/VCAM-1 | -0.0295 ± 0.025 | 0.0045 ± 0.0078 | -0.0035 ± 0.005 | -0.0115 ± 0.036 | 0 ± 0.017 | -0.0195 ± 0.019 | -0.0195 ± 0.0035 | -0.013 ± 0.0028 | -0.0085 ± 0.0035 | -0.011 ± 0.0042 | -0.0065 ± 0.0078 | -0.0165 ± 0.032 | -0.004 ± 0.041 | -0.0005 ± 0.0021 | -0.0075 ± 0.00071 | 0 ± 0.016 | 0.0045 ± 0.011 | -0.005 ± 0.0057 | -0.0255 ± 0.00071 | -0.0075 ± 0.018 | 0.0065 ± 0.016 | -0.0055 ± 0.011 | 0.0005 ± 0.018 | -0.0045 ± 0.019 | -0.004 ± 0.025 | -0.013 ± 0.018 | -0.0195 ± 0.0078 | -0.014 ± 0.0014 | -0.0065 ± 0.026
lMphg:CXCL8/IL-8 | 0.012 ± 0.0042 | 0.0135 ± 0.081 | 0.015 ± 0.013 | -0.0025 ± 0.015 | 0.005 ± 0.083 | 0.138 ± 0.04 | 0.137 ± 0.0021 | 0.194 ± 0.0078 | 0.261 ± 0.025 | 0.0015 ± 0.032 | 0.0215 ± 0.025 | 0.0345 ± 0.044 | -0.022 ± 0.048 | 0.0085 ± 0.05 | -0.0195 ± 0.08 | 0.044 ± 0.052 | 0.014 ± 0.0042 | 0.044 ± 0.072 | -0.0185 ± 0.0021 | 0.0215 ± 0.029 | 0.045 ± 0.024 | 0.0515 ± 0.036 | 0.074 ± 0.023 | 0.0225 ± 0.035 | 0.022 ± 0.0028 | 0.06 ± 0.0085 | 0.183 ± 0.0099 | 0.0485 ± 0.011 | 0.0075 ± 0.021
lMphg:IL-1alpha | -0.0625 ± 0.17 | -0.0075 ± 0.032 | 0.028 ± 0.073 | 0.0095 ± 0.14 | 0.0175 ± 0.035 | 0.0725 ± 0.084 | 0.0825 ± 0.059 | 0.079 ± 0.055 | 0.11 ± 0.021 | -0.027 ± 0.047 | -0.0055 ± 0.028 | 0.012 ± 0.034 | -0.0185 ± 0.0035 | 0.0235 ± 0.1 | 0.019 ± 0.021 | 0.0045 ± 0.005 | -0.004 ± 0.0057 | -0.0095 ± 0.023 | -0.022 ± 0.031 | 0.0085 ± 0.021 | 0.0035 ± 0.04 | 0 ± 0.011 | -0.009 ± 0.033 | 0.036 ± 0.028 | 0.0315 ± 0.016 | -0.0055 ± 0.056 | 0.034 ± 0.031 | 0.0095 ± 0.036 | -0.0445 ± 0.033
lMphg:M-CSF | 0.0085 ± 0.025 | 0.0055 ± 0.025 | -0.0025 ± 0.042 | 0.012 ± 0.04 | -0.006 ± 0.0014 | -0.0885 ± 0.013 | -0.084 ± 0.021 | -0.0725 ± 0.00071 | -0.0815 ± 0.011 | -0.003 ± 0.028 | 0.0265 ± 0.052 | 0.016 ± 0.011 | -0.008 ± 0.0057 | 0.0155 ± 0.047 | 0.01 ± 0.033 | -0.0285 ± 0.044 | -0.028 ± 0.014 | -0.017 ± 0.0042 | -0.0175 ± 0.019 | 0.0075 ± 0.022 | 0.0005 ± 0.028 | -0.011 ± 0.028 | -0.023 ± 0.0014 | 0.0295 ± 0.032 | 0.021 ± 0.028 | -0.0045 ± 0.074 | -0.0045 ± 0.07 | -0.0215 ± 0.059 | -0.0205 ± 0.00071

— the supplement of paper PMC10331698
